Where “and” joins values, the source holds several entries; their conditions need not be identical. Equal entries are not always repeated. About 6,000 (1.7%) of roughly 350,000 compounds were called active. The shares of active, inactive and inconclusive entries below differ from those in the screen. Rule as the data show it: active = CPE inhibition above about 20% (passing the limit was not always enough); inconclusive = no clear call, values can overlap the other calls; tested in BHK-21 cells.
Assay: protection of cells from dengue 2 killing – plate reader, single concentration, primary screen (AID 651640);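 also: 0% = median of neutral control wells and 100% = median of positive control wells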
Details: DENV2-infected cells, cytopathic effect rescue, at 9.99 µM, stronger effect = higher value
With Cn1c(C(O)c2ccc(Br)cc2)nc(Cl)c1Cl (stereo unspecified) the CPE inhibition was inconclusive: 55.4%.
In the case of COc1ccc(C(O)c2ncc(-c3ccccc3)[nH]2)cc1 (stereo unspecified), the CPE inhibition is reported as inconclusive: 47.1%.
With CC(C)(C)c1ccc(NC(=O)COC(=O)CCc2nc3ccccc3c(=O)[nH]2)cc1 the CPE inhibition was inconclusive: 21.3%.
In the case of CCC(=O)N1[C@H](CO)[C@@H]2c3ccccc3N(S(=O)(=O)c3ccccc3F)C[C@@H]21, the CPE inhibition is reported as inactive: 6.91%.
With COC(=O)N1C[C@H](OC(=S)Nc2ccc(OC)cc2OC)[C@H]2C[C@@H]1c1ccccc1O2 the CPE inhibition was inconclusive: 55.6%.
With COc1ccc(NC(=O)Nc2ccc3c(c2)C(=O)N([C@@H](C)CO)C[C@H](C)[C@@H](CN(C)C(=O)CCC(F)(F)F)OCCCC[C@H](C)O3)cc1 the CPE inhibition was inconclusive: 73.4%.
With CN(Cc1ccc(Cl)cc1Cl)C(=O)c1cccc(S(=O)(=O)N2CCN(c3ccccc3)CC2)c1 the CPE inhibition was inconclusive: 39%.
With Cn1nc(C2CC2)cc1NC(=O)CC(CC(=O)O)c1ccccc1 (stereo unspecified) the CPE inhibition was inconclusive: 24.5%.
With COc1cc(Cl)ccc1OC1(C)CCN(Cc2ccccc2OC(F)F)C1 (stereo unspecified) the CPE inhibition was inconclusive: 37.7%.
In the case of O=C(CSc1ccccn1)N/N=C/c1cccc([N+](=O)[O-])c1, the CPE inhibition is reported as active: 46.4%.
With O=C(NCCO)N1c2ccccc2Sc2ccccc21 the CPE inhibition was inactive: -0.494%.
With COc1ccc(NC(=O)N2CC(=O)N3[C@H](C2)[C@H](c2ccc(C#CCC4CCCC4)cc2)[C@@H]3CO)cc1 the CPE inhibition was inactive: 4.54%.
In the case of CC12CCC(C(=O)NNC(=O)c3ccccc3)(OC1=O)C2(C)C (stereo unspecified), the CPE inhibition is reported as inconclusive: 38.9%.
In the case of COc1cc(/C=C/C(=O)OCC(=O)NC(=O)NC(C)(C)C)cc(OC)c1OC, the CPE inhibition is reported as inconclusive: 23.7%.
For COc1cccc(Nc2nc(-c3sc(NC(=O)CC(C)C)nc3C)cs2)c1, the CPE inhibition was inconclusive: 21.2%.
With C[C@@H]1CCCCO[C@@H](CN(C)Cc2ccc(C(F)(F)F)cc2)[C@@H](C)CN([C@H](C)CO)C(=O)c2cc(NS(C)(=O)=O)ccc2O1 the CPE inhibition was inconclusive: 34%.
For C#CCOCCOCCOCCNc1nc(N2CCOCC2)nc(N2CCN(C(=O)[C@H](CCCN=C(N)N)n3cc(C(N)[C@@H](C)CC)nn3)CC2)n1 (stereo partly specified), the CPE inhibition was active: 119%.
For COc1ccc(CCNC(=O)C(=O)NCC2OCCN2S(=O)(=O)c2ccc(C)cc2)cc1OC (stereo unspecified), the CPE inhibition was inconclusive: 21.7%.
With COC(=O)[C@@]1(Cc2ccc(F)cc2)[C@H]2c3cc(C(=O)N4CCCC4)n(Cc4ccc(C)c(F)c4F)c3C[C@H]2CN1C(=O)c1ccccc1 the CPE inhibition was inconclusive: 60.7%.
For CC1C=NC(S(=O)(=O)N2CC[C@@H]3[C@H](CO)N(C)c4ccc(-c5ccccc5)cc4[C@@H]32)=N1 (stereo partly specified), the CPE inhibition was inconclusive: 32.7%.
With COc1ccc(CN(C)C[C@H]2OCCCC[C@H](C)Oc3ccc(NC(=O)Cc4ccccc4)cc3C(=O)N([C@@H](C)CO)C[C@H]2C)cc1 the CPE inhibition was inconclusive: 29.2%.
For COCC(=O)N1CCC(Oc2ccc(C(=O)NCc3cc(C(C)C)no3)cc2)CC1, the CPE inhibition was inconclusive: 24.9%.
In the case of CC(C)COC(=O)N1CCCCC1c1cc(C(=O)NCc2ccccc2)no1 (stereo unspecified), the CPE inhibition is reported as inconclusive: 31.2%.
In the case of O=S(=O)(c1ccc(Cl)nc1)N1CCc2ccccc21, the CPE inhibition is reported as inactive: -8.96%.
With CCCC#Cc1cnc2c(c1)C(=O)N([C@@H](C)CO)C[C@@H](C)[C@H](CN(C)C(=O)c1ccc3c(c1)OCO3)O2 the CPE inhibition was active: 83.5%.
In the case of C[C@H](CO)N1C[C@H](C)[C@H](CN(C)C(=O)Cc2ccccc2)Oc2cc(C#CC3(O)CCCC3)ccc2S1(=O)=O, the CPE inhibition is reported as inconclusive: 40.6%.
With C/C=C/c1ccc(OCCn2nnc3ccccc32)c(OC)c1 the CPE inhibition was inconclusive: 21.2%.
With CCN1C(=O)[C@@H]2[C@@H](c3ccc(-c4cccc(Cl)c4)c(OC)c3)N3CCCC[C@@]3(C(=O)OC)[C@@H]2C1=O the CPE inhibition was inconclusive: 53.8%.
With COc1ccc(Cl)cc1N(C(=O)c1ccco1)C(C(=O)NC1CCCC1)c1ccco1 (stereo unspecified) the CPE inhibition was active: 75%.
In the case of O=S(=O)(NCc1ccc(Cl)cc1Cl)c1ccc(N2CCOCC2)nc1, the CPE inhibition is reported as inactive: -0.806%.
With CCCNC(=O)N(C)C[C@@H]1Oc2cc(C#CC(C)(C)O)ccc2S(=O)(=O)N([C@@H](C)CO)C[C@H]1C the CPE inhibition was inconclusive: 37.5%.
For CCc1nc2c(OCc3cccc(Cl)c3)cccn2c1N(C)C(=O)c1ccncc1, the CPE inhibition was inactive: 11.5%.
For COC(=O)c1sccc1NC(=O)c1cccc(Cl)c1, the CPE inhibition was inconclusive: 24.3%.
With O=C(Cn1cc(COc2ccc(C(=O)c3ccccc3)cc2)nn1)c1ccc(O)cc1 the CPE inhibition was inconclusive: 33.5%.
In the case of CNC[C@H]1Oc2cc(C#CC(C)(C)O)ccc2S(=O)(=O)N([C@H](C)CO)C[C@@H]1C, the CPE inhibition is reported as inconclusive: 29.5%.
In the case of O=C(CN1CCOCC1)N1CCCCN2[C@H](CO)[C@H](c3ccc(C#Cc4ccccc4F)cc3)[C@@H]2C1, the CPE inhibition is reported as active: 48.3%.
In the case of Cc1ccc(CC2C(=O)N(c3cc(Cl)ccn3)C(=O)C2C)cc1 (stereo unspecified), the CPE inhibition is reported as inconclusive: 27.5%.
In the case of CCN(CCO)Cc1csc2cc(C)ccc12, the CPE inhibition is reported as inconclusive: 68.7%.
For CCC(=O)N(C)C[C@@H]1Oc2cc(C#CC(C)C)ccc2S(=O)(=O)N([C@H](C)CO)C[C@@H]1C, the CPE inhibition was inconclusive: 21%.
With CN(Cc1ccc(F)cc1)C(=O)CNC(=O)c1cccs1 the CPE inhibition was inconclusive: 29.4%.
For Cc1cc(NN=Cc2ccccn2)nc2c(C)cccc12, the CPE inhibition was inconclusive: 54.1%.
With COc1ccc(S(=O)(=O)N(C)C[C@@H]2Oc3cc(C#CC4CCCCC4)ccc3S(=O)(=O)N([C@H](C)CO)C[C@H]2C)cc1 the CPE inhibition was inactive: -1.39%.
For COc1ccc(CNC(=O)C[C@@H]2CC[C@@H](NS(=O)(=O)c3cccc(OC)c3)[C@@H](CO)O2)cc1, the CPE inhibition was inconclusive: 32.9%.
For O=C(N/N=C/C=C/c1ccccc1)c1cccs1, the CPE inhibition was inactive: -1.42%.
With C[C@@H]1CCCCO[C@@H](CN(C)C(=O)c2ccncc2)[C@H](C)CN([C@H](C)CO)C(=O)c2cc(NC(=O)C3CCCCC3)ccc2O1 the CPE inhibition was inconclusive: 69.5%.
In the case of CCOC(=O)c1nn(-c2ccccc2F)c2nc(-c3ccco3)c(C#N)c(=O)n12, the CPE inhibition is reported as inconclusive: 73.1%.
In the case of O=C(Nc1cccc(C(F)(F)F)c1)C(Sc1cccc[n+]1[O-])c1ccccc1 (stereo unspecified), the CPE inhibition is reported as inconclusive: 26.3%.
In the case of Cc1cc2cc(CNC(=O)c3cccc([N+](=O)[O-])c3)ccc2[nH]1, the CPE inhibition is reported as inconclusive: 26.5%.
In the case of O=C(C[C@@H]1CC[C@H](NC(=O)CCN2CCCCC2)[C@H](CO)O1)NCc1ccc(Cl)c(Cl)c1, the CPE inhibition is reported as inconclusive: 25.6%.
For Cc1cccc(N=Cc2c(O)cc(C)oc2=O)c1, the CPE inhibition was inconclusive: 22.3%.
For CC(C)CC#Cc1ccc2c(c1)O[C@H](CN(C)C(=O)Cc1ccncc1)[C@H](C)CN([C@H](C)CO)S2(=O)=O, the CPE inhibition was inconclusive: 42.1%.
In the case of O=C(OC1CC2CC1[C@H]1CCCCN1C2=O)N1CCC(c2ccccc2)CC1 (stereo partly specified), the CPE inhibition is reported as inconclusive: 42.1%.
With Cc1ccc(S(=O)(=O)N[C@@H]2C=C[C@@H](CC(=O)N3CCC(Cc4ccccc4)CC3)O[C@@H]2CO)cc1 the CPE inhibition was inactive: 7.41%.
With Cc1cc(NC(=O)CCC(=O)N(c2ccccc2)C(C(=O)NC(C)(C)C)c2ccccc2Cl)no1 (stereo unspecified) the CPE inhibition was inconclusive: 20.9%.
For CC(C)c1ccc(C2=NN(c3ccccc3)C(=O)CC2)cc1, the CPE inhibition was inconclusive: 24.1%.
With O=C(NCC[C@H]1CC[C@@H](NS(=O)(=O)c2ccc(F)cc2)[C@@H](CO)O1)c1ccccc1F the CPE inhibition was inconclusive: 37.7%.
For O=C(C[C@@H]1C=C[C@@H](NS(=O)(=O)c2ccccc2)[C@@H](CO)O1)NCc1ccc(Cl)c(Cl)c1, the CPE inhibition was inconclusive: 31.6%.
For C[C@H](CO)N1C[C@H](C)[C@@H](CN(C)S(=O)(=O)c2ccc(Cl)cc2)Oc2ccc(NC(=O)C3CCCCC3)cc2C1=O, the CPE inhibition was inactive: -5.29%.
For CC(=O)Oc1ccc(-c2cc3c(OC(C)=O)cc(OC(C)=O)cc3oc2=O)cc1, the CPE inhibition was inconclusive: 54%.
With O=C(N/C(=C/c1ccc(Br)cc1)C(=O)N1CCCC1)c1cccs1 the CPE inhibition was inconclusive: 24.5%.
With CC(Oc1ccccc1)C(=O)Nc1ccc(S(=O)(=O)N2CCCC2)cc1 (stereo unspecified) the CPE inhibition was inactive: -3.23%.
In the case of CC(=O)C1=C(NC(=O)c2ccc(C(F)(F)F)cc2)C[C@@H]2[C@H]1C2(C)C, the CPE inhibition is reported as inconclusive: 28.9%.
With Cc1ccc(-c2cnc3c(c2)C(=O)N([C@H](C)CO)C[C@H](C)[C@@H](CN(C)Cc2ccccc2F)O3)cc1 the CPE inhibition was inactive: 3.78% and inactive: 2.23% and inactive: 0.566%.
With CCC(=O)N1CC2(CCN(C(=O)NC(C)C)CC2)c2c(n(C)c3cc(OC)ccc23)[C@@H]1CO the CPE inhibition was inactive: 1.52%.
With CO[C@H]1CN(C)C(=O)c2cc(NC(=O)Nc3ccccc3Cl)ccc2OC[C@H](C)NC[C@H]1C the CPE inhibition was inactive: -2.38%.
With CCOC(=O)[C@@H]1[C@H]2COc3ccc(Br)cc3[C@@H]2N2C(=O)N(c3cccc(Cl)c3)C(=O)[C@]12C the CPE inhibition was inactive: -3.75%.
For N#C[C@@H]1[C@@H](c2ccccc2-c2cccc(F)c2)[C@H](CO)N1C(=O)NC1CCCC1, the CPE inhibition was inactive: 1.02%.
In the case of C[C@H]1CN([C@@H](C)CO)C(=O)Cc2cc(N(C)C)ccc2O[C@H]1CN(C)S(C)(=O)=O, the CPE inhibition is reported as inactive: 8.42%.
With COC1C(CO)OC(n2c3c(Cl)cccc3c3c4c(c5c6cccc(Cl)c6[nH]c5c32)C(=O)NC4=O)C(O)C1O (stereo unspecified) the CPE inhibition was inconclusive: 22.6%.
In the case of C[C@H](CO)N1C[C@H](C)[C@@H](CN(C)Cc2ccc(Cl)c(Cl)c2)OCCCC[C@H](C)Oc2ccc(NS(C)(=O)=O)cc2C1=O, the CPE inhibition is reported as inconclusive: 24.4%.
For Cc1noc(C)c1NC(=O)N(C)C[C@H]1OCCCC[C@H](C)Oc2ccc(NC(=O)NC(C)C)cc2C(=O)N([C@@H](C)CO)C[C@H]1C, the CPE inhibition was inactive: -8.66%.

From PubChem BioAssay AID651640 (Broad Institute, 2012)
